# PubChem BioAssay AID493014 (National Center for Advancing Translational Sciences (NCATS), 2011)
# Some of the results follow. Further columns of the screen follow, without active or inactive calls. Most of these compounds were active or inconclusive in the main read-out, so they are no random draw. The note in brackets gives the kind of curve behind each potency; many fits are weak.
# Assay: qHTS Assay to Find Inhibitors of Chronic Active B-Cell Receptor Signaling
# Conditions: ABC-DLBCL IkBa-CBG/CBR reporter, luminescence ratio (green luciferase fused to IkBa over red control in TMD8 lymphoma cells), 4 h
# How it was run: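 Doxycycline induced both beetle luciferases in TMD8 lymphoma cells; IKK-driven degradation limits the IkappaBalpha-fused green signal, while red luminescence normalises for cell number and nonspecific effects. Compounds tested up to 46 uM, 4 hrs.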
# [1] = measured here: CBR red luminescence, cell number
Structure (SMILES),AC50 [1],AC50 (measured here: IkBa-CBG green luminescence)
C=C1CCC[C@]2(C)C[C@H]3OC(=O)C(CN(Cc4ccc(OC)c(OC)c4)CC(C)O)[C@H]3CC12 (stereo partly drawn),"10 µM [falling, partial curve, poor fit]",
CN(C(=O)CCc1nc2ccccc2s1)c1ccccc1,"16.4 µM [rising, single point]",
CC(C)(C)c1cc[n+](-c2[nH]c(=O)sc2/C=N/NC(=O)c2ccccc2[O-])cc1,"22.4 µM [falling, single point]",
CCNC(=O)CC1S/C(=N/N=C(\C)c2ccccc2)NC1=O (stereo not drawn),"35.5 µM [rising, single point]",
O=C(COc1ccc(Cl)cc1Cl)c1ccc[nH]1,"0.794 µM [rising, full curve]",
CN(Cc1cnn(C)c1)C(=O)C1CCC(=O)N(Cc2ccc(Cl)cc2)C1 (stereo not drawn),"35.5 µM [rising, partial curve, poor fit]",
NS(=O)(=O)c1cccc(NC(=O)c2cccc(-c3ccc(O)cc3)c2)c1,"28.2 µM [falling, single point]",
CSc1nnc(SCc2nc3sc(C(=O)O)c(C)c3c(=O)[nH]2)s1,"15.8 µM [falling, partial curve, poor fit]",
O=Cc1cc(N=Nc2ccccc2Cl)ccc1O,"35.5 µM [rising, single point]",
Cc1cccc(CCNCc2c(C(=O)O)c(C)n(-c3ccccc3)c2C)c1,"12.6 µM [falling, partial curve, poor fit]",
CCC(=O)N/C(=N/c1nc(C)cc(C)n1)Nc1ccc(C)cc1,"0.794 µM [rising, full curve, poor fit]",
CC1CCN(S(=O)(=O)c2ccc3ncn(CC(=O)N(C)C4CCCCC4)c(=O)c3c2)CC1,"2.24 µM [falling, partial curve]",
NS(=O)(=O)c1ccc(NC2=CC(=O)C(=O)c3ccccc32)cc1,"17.8 µM [falling, single point]",
CCOc1ccc(NC(=S)NNC(=S)Nc2cccc(C(F)(F)F)c2)cc1,"15.8 µM [rising, single point]",
Cc1cc(C(=O)CCC(=O)Nc2ncccc2O)c(C)s1,"9.2 µM [falling, partial curve]",
COc1cccc(CNC(=O)c2cc3ccccn3n2)c1,"4.61 µM [falling, partial curve, poor fit]",

Structure (SMILES),AC50 [1],AC50 (measured here: IkBa-CBG green luminescence)
O=C(COc1ccc(Br)cc1)Nc1cccc2cccnc12,"12.6 µM [rising, partial curve]",
Cc1ccc(NC2=NCC(=O)N2C2CCCC2)cc1,"35.5 µM [rising, single point]",
C=CCn1cnc2c(nnn2-c2ccc(C)c(Cl)c2)c1=O,"5.62 µM [rising, full curve, poor fit]",
CC(Oc1ccc(Cl)cc1)C(=O)Nc1ccc(S(=O)(=O)Nc2nccs2)cc1 (stereo not drawn),"10 µM [falling, partial curve, poor fit]",
COc1cccc(NC(=O)Cc2c(C(=O)O)[nH]c3ccccc23)c1,"6.31 µM [falling, single point]",
CC(/C=N\N1CCN(c2ccc(Cl)cc2)CC1)=C\c1ccccc1,"6.51 µM [rising, single point]",
COc1ccc(OC)c(CNn2c(-c3cccc(C)c3)nc3ccccc3c2=O)c1,"1.16 µM [rising, full curve, poor fit]",
COc1ccccc1/C=C/C(=O)NCc1ccccn1,"14.1 µM [falling, single point]",
CCn1c2ccccc2c2cc(NC(=O)CNCc3ccccc3OC)ccc21,"31.6 µM [rising, single point]","17.8 µM [falling, single point]"
Cc1ccc2nc(NC(=O)CSc3ncc(C(=O)Nc4ccccc4)c(=O)n3C)sc2c1,"35.5 µM [falling, single point]",
COc1ccccc1NC(=O)Nc1cccc(C(=O)O)c1,"35.5 µM [falling, single point]",
Cc1ccccc1NC1=C/C(=N\S(=O)(=O)c2cccs2)c2ccccc2C1=O,"0.146 µM [falling, full curve, poor fit]",
O=C(c1ccc([N+](=O)[O-])cc1)N(Cc1ccc(Cl)cc1Cl)N1C(=O)CCCC1=O,"16.4 µM [rising, single point]",
CCCCn1c(N)c(N(CCOC)C(=O)CN(C)S(=O)(=O)c2ccc(Cl)cc2)c(=O)[nH]c1=O,"5.01 µM [falling, partial curve, poor fit]",
COc1ccc(NC(=S)NC(NC(=O)c2cccc3ccccc23)C(Cl)(Cl)Cl)c([N+](=O)[O-])c1 (stereo not drawn),"6.51 µM [falling, single point]",
Cc1cc(NC(=O)CN2C(=O)CC(c3ccco3)Sc3ccccc32)no1 (stereo not drawn),"20.6 µM [falling, single point]",

# Rewritten bar-delimited: 2 of the compounds above
Structure (SMILES) | AC50 [1] | AC50 (measured here: IkBa-CBG green luminescence)
Cc1ccc2nc(NC(=O)CSc3ncc(C(=O)Nc4ccccc4)c(=O)n3C)sc2c1 | 35.5 µM [falling, single point] | 
COc1ccc(NC(=S)NC(NC(=O)c2cccc3ccccc23)C(Cl)(Cl)Cl)c([N+](=O)[O-])c1 (stereo not drawn) | 6.51 µM [falling, single point] | 
